Measurements reported in PubChem BioAssay AID1259405 (NCATS, 2018).
Assay: 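Knock-downs that lift recombinant protein yield in hamster ovary cells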 (primary screen). System: Chinese hamster CHO-K1 ovary cells with stable secreted eGFP expression. Knock-down reagent: single siRNA against mouse genes, 0.8 pmol siRNA per well (2 µl of 400 nM stock). Time to read-out: 3 days. Measured: 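Per-well intracellular GFP measured by laser scanning cytometry, plus viability from ATP luminescence, each relative to plate median of non-targeting control wells, in %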. Direction: GFP, % of control: higher = more GFP per well, higher productivity; viability (ATP), % of control: higher = more viable cells (more ATP). Hit rule: 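Called active when intracellular GFP, relative to negative control, is at or above 120%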.
The deposit covers about 50,000 reagents; shown is a random part of them. Over the whole deposit, about 4,000 (8%) were called active. 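Mouse siRNA library applied to hamster cells; one well for each siRNA.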 No sequences are given here.

gene knocked down | PubChem SID | GFP, % of control | viability (ATP), % of control | Call
Clcn2 | SID363574554 | 97.1 | 91.9 | inactive
Clcn2 | SID363575610 | 78.3 | 96.1 | inactive
Clcn2 | SID363580186 | 35.1 | 54.2 | inactive
Or6n1 | SID363544673 | 34.9 | 45.2 | inactive
Or6n1 | SID363551001 | 86.9 | 85.1 | inactive
Or6n1 | SID363557550 | 82.7 | 80.6 | inactive
Avil | SID363572212 | 69.5 | 69.5 | inactive
Avil | SID363573972 | 63.5 | 61.1 | inactive
Pdyn | SID363541808 | 77 | 65.8 | inactive
Pdyn | SID363553400 | 84.4 | 71.6 | inactive
Pdyn | SID363566724 | 43.9 | 73.2 | inactive
Idnk | SID363552135 | 67.6 | 56 | inactive
Idnk | SID363585271 | 78.1 | 75.3 | inactive
Idnk | SID363585622 | 101 | 163 | inactive
Trpv4 | SID363574804 | 175 | 117 | active
Trpv4 | SID363575860 | 37.6 | 42.9 | inactive
Trpv4 | SID363580436 | 81.8 | 58.5 | inactive
Slc26a6 | SID363547886 | 61.6 | 63.9 | inactive
Slc26a6 | SID363558655 | 74.3 | 69.1 | inactive
Slc26a6 | SID363560413 | 67.9 | 88.5 | inactive
Zfp825 | SID363555187 | 50.7 | 54.4 | inactive
Zfp825 | SID363563848 | 70 | 63.7 | inactive
Zfp825 | SID363587394 | 106 | 101 | inactive
Plekhb2 | SID363554754 | 59.9 | 72.9 | inactive
Plekhb2 | SID363568201 | 54.3 | 63.7 | inactive
Plekhb2 | SID363586260 | 84.7 | 79.6 | inactive
1700034E13Rik | SID363543364 | 44.1 | 25.3 | inactive
1700034E13Rik | SID363552857 | 46.7 | 52.9 | inactive
1700034E13Rik | SID363558705 | 86 | 78.1 | inactive
Ndst1 | SID363570570 | 89.8 | 67.9 | inactive
Ndst1 | SID363579370 | 79.3 | 66.8 | inactive
Ndst1 | SID363583242 | 62.4 | 86.7 | inactive
Vmn1r70 | SID363545080 | 118 | 81.6 | inactive
Vmn1r70 | SID363551408 | 80.8 | 82.2 | inactive
Vmn1r70 | SID363557957 | 47.1 | 67.4 | inactive
Etfb | SID363545359 | 111 | 110 | inactive
Etfb | SID363548872 | 69.9 | 73.5 | inactive
Etfb | SID363562678 | 65.6 | 57.2 | inactive
Cxcl14 | SID363550270 | 63.6 | 85.9 | inactive
Cxcl14 | SID363564779 | 78.2 | 70.2 | inactive
Cxcl14 | SID363588324 | 87.1 | 91.3 | inactive
Mier2 | SID363545922 | 195 | 108 | active
Mier2 | SID363549435 | 78.6 | 75.9 | inactive
Mier2 | SID363563241 | 65.6 | 66.1 | inactive
Cep170b | SID363546620 | 17.5 | 18.6 | inactive
Cep170b | SID363548376 | 76.4 | 71.6 | inactive
Cep170b | SID363560554 | 77.7 | 91.1 | inactive
Nipa1 | SID363562060 | 78.1 | 68.4 | inactive
Nipa1 | SID363567198 | 110 | 112 | inactive
Nipa1 | SID363584555 | 125 | 72.5 | active
Spem2 | SID363552305 | 94.1 | 86.5 | inactive
Spem2 | SID363585441 | 96.6 | 93.3 | inactive
Spem2 | SID363585792 | 87.4 | 102 | inactive

Targets listed so far whose target name begins with E or e (3):
gene knocked down | PubChem SID | GFP, % of control | viability (ATP), % of control | Call
Etfb | SID363545359 | 111 | 110 | inactive
Etfb | SID363548872 | 69.9 | 73.5 | inactive
Etfb | SID363562678 | 65.6 | 57.2 | inactive

Additional results follow.
gene knocked down | PubChem SID | GFP, % of control | viability (ATP), % of control | Call
Ptprn2 | SID363575048 | 52.9 | 57.9 | inactive
Ptprn2 | SID363580680 | 74.4 | 52.7 | inactive
Ptprn2 | SID363582792 | 85.7 | 72 | inactive
Or51ab3 | SID363544816 | 165 | 55.7 | active
Or51ab3 | SID363551144 | 77.8 | 85.1 | inactive
Or51ab3 | SID363557693 | 67.5 | 59.5 | inactive
5930422O12Rik | SID363552398 | 62.1 | 76.2 | inactive
5930422O12Rik | SID363585534 | 66.3 | 79.4 | inactive
5930422O12Rik | SID363585885 | 78.3 | 115 | inactive
Spout1 | SID363539507 | 68.8 | 81.8 | inactive
Spout1 | SID363560808 | 121 | 112 | active
Spout1 | SID363564898 | 73.3 | 62.4 | inactive
Guca1b | SID363582665 | 64.6 | 79.3 | inactive
Guca1b | SID363584425 | 66.2 | 70.5 | inactive
Hes3 | SID363555239 | 88.4 | 68.6 | inactive
Hes3 | SID363563900 | 80.5 | 55.4 | inactive
Hes3 | SID363587446 | 80.9 | 83.3 | inactive
Or5m8 | SID363544405 | 76.9 | 69 | inactive
Or5m8 | SID363550733 | 89.3 | 64.9 | inactive
Or5m8 | SID363557282 | 67.4 | 98.4 | inactive
Dlgap1 | SID363544210 | 46.4 | 32 | inactive
Dlgap1 | SID363550538 | 60.6 | 72.4 | inactive
Dlgap1 | SID363557087 | 43 | 35.9 | inactive
Rbak | SID363540959 | 58.7 | 56.9 | inactive
Rbak | SID363555586 | 81.1 | 97.4 | inactive
Rbak | SID363565875 | 83.1 | 80.2 | inactive
Or4e5 | SID363554291 | 83.7 | 77.7 | inactive
Or4e5 | SID363567738 | 117 | 69.7 | inactive
Or4e5 | SID363585095 | 72.4 | 97 | inactive
Txlna | SID363553546 | 56.9 | 71.5 | inactive
Txlna | SID363561503 | 47.2 | 23.2 | inactive
Txlna | SID363565241 | 51 | 37.9 | inactive
Cldn10 | SID363572569 | 70.3 | 59 | inactive
Cldn10 | SID363577849 | 58.7 | 61.7 | inactive
Cldn10 | SID363582073 | 111 | 114 | inactive
Alkbh8 | SID363569215 | 84.9 | 110 | inactive
Alkbh8 | SID363583647 | 130 | 101 | active
Olfr257 | SID363544456 | 23.7 | 30.1 | inactive
Olfr257 | SID363550784 | 51.8 | 73.1 | inactive
Olfr257 | SID363557333 | 41.1 | 46.6 | inactive
Zfp143 | SID363569241 | 64.3 | 62 | inactive
Zfp143 | SID363583673 | 130 | 90.3 | active
Plppr4 | SID363547631 | 68.9 | 43.9 | inactive
Plppr4 | SID363558400 | 96.9 | 61.9 | inactive
Plppr4 | SID363560158 | 75.9 | 90.8 | inactive
Tmem67 | SID363552122 | 94.3 | 90.7 | inactive
Tmem67 | SID363585258 | 101 | 108 | inactive
Tmem67 | SID363585609 | 167 | 155 | active
Or2aa1 | SID363544467 | 66.7 | 34.6 | inactive
Or2aa1 | SID363550795 | 121 | 66.2 | active
Or2aa1 | SID363557344 | 72.4 | 51.4 | inactive
Tsn | SID363569153 | 99.3 | 85.5 | inactive
Tsn | SID363583585 | 119 | 89.5 | inactive
Or1b1 | SID363544585 | 79.8 | 78.3 | inactive
Or1b1 | SID363550913 | 77.3 | 74.2 | inactive
Or1b1 | SID363557462 | 68.4 | 44.8 | inactive
